Some entries share one result that the patent states for a list of compounds. At least one compound was matched to its structure with a doubt left.
Assay: solubility / solubilization in the MCT carrier oil
Conditions: admixing without solvent aid
Excerpt: The process for solubilizing target compounds according to the disclosure comprises, in particular, the following steps: (a) preparation of a carrier liquid solution comprising a mixture of medium-chain triglycerides, an amount of this carrier liquid solution is used, the amount depending on the amount of target compound to be solubilized; (b) admixing the carrier liquid solution with the target compound; (c) and, optionally, admixing a stabilizing compound to the carrier liquid/target compound. In some cases, depending on the compound to be solubilized, solvents that dissolve both polar and non-polar compounds such as ethanol, methanol, acetonitrile, 1-butanol or isopropyl alcohol, may be added to encourage solubilization, and then removed by vacuum evaporation. As another aspect, during compounding, dry inert gas may be filtered through the mixture to remove moisture.
Riboflavin is known to have poor solubility in aqueous solutions and organic solvents. […] It may be desirable to solubilize a higher concentration of riboflavin in an ENDS. […] This mixture may then be added to MCTs (for example 0.0-6.0% C6, 6.0-60% C8, and/or 6.0-60% C10), homogenized for 5 minutes and subsequently heated to approximately 85 degrees Celsius at 250 mb (or 250 hPa) pressure in a rotary evaporator to drive off the methanol.
Another example may be sulbutiamine. Sulbutiamine is a disulfide dimer of thiamine. […] It may be desirable to provide sulbutiamine in an ENDS. […]

Row | Compound | quantity incorporated into the carrier oil by admixing
1 | CC1=C(/C=C/C(C)=C/C=C/C(C)=C/C=C/C=C(C)/C=C/C=C(C)/C=C/C2=C(C)C(=O)CCC2(C)C)C(C)(C)CCC1=O [Canthaxanthin] | < 2 mg/mL
2 | CC1=C(/C=C/C(C)=C/C=C/C(C)=C/C=C/C=C(C)/C=C/C=C(C)/C=C/C2=C(C)C[C@@H](O)CC2(C)C)C(C)(C)CCC1 [Crytoxanthin] | < 2 mg/mL
3 | CC1=C(/C=C/C(C)=C/C=C/C(C)=C/C=C/C=C(C)/C=C/C=C(C)/C=C/C2=C(C)C[C@@H](O)CC2(C)C)C(C)(C)C[C@H](O)C1 [Zeaxanthin] | < 2 mg/mL
